Results reported in patent publication US20210171589A1, “TRUNCATED CARTILAGE-HOMING PEPTIDES AND PEPTIDE COMPLEXES AND METHODS OF USE THEREOF” (BLAZE BIOSCIENCE, INC., priority 2018, published 2021).
At least one peptide structure holds a part that was inferred or is arguable (an end, a ring closure or a residue). Bridge positions count the residues as written; N and C are the ends. Peptide text beside a SMILES is read from it.

What was measured:
[1] = Peptide resistance to high temperatures, reversed-phase chromatography; assay type: physicochemical; settings: 0.5 mM in PBS, 1 h
[2] = Peptide resistance to reduction (10 mM DTT), reversed-phase chromatography; assay type: physicochemical

CC[C@H](C)[C@@H]1NC(=O)[C@@H]2CSSC[C@H](NC(=O)[C@H](CCCCN)NC(=O)[C@@H](NC(=O)[C@H](CC(N)=O)NC(=O)[C@@H](NC(=O)[C@@H]3CCCN3C(=O)[C@@H](NC(=O)CNC(=O)[C@H](CO)NC(=O)CN)C(C)C)[C@@H](C)CC)C(C)C)C(=O)N[C@@H](CCCNC(=N)N)C(=O)NCC(=O)N[C@@H](CO)C(=O)N[C@@H](CCCNC(=N)N)C(=O)N[C@@H](CC(=O)O)C(=O)N[C@H]3CSSC[C@H](NC(=O)[C@H](CCCCN)NC(=O)[C@H](CO)NC(=O)[C@H](CC(N)=O)NC1=O)C(=O)N[C@@H](Cc1c[nH]cn1)C(=O)N[C@H](C(=O)N[C@H](C(=O)N1CCC[C@H]1C(=O)O)[C@@H](C)O)CSSC[C@H](NC(=O)[C@@H]1CCCN1C(=O)[C@H](CC(=O)O)NC(=O)[C@H](CC(C)C)NC3=O)C(=O)N[C@@H](CCCCN)C(=O)N[C@@H](CCCCN)C(=O)N[C@@H](C)C(=O)NCC(=O)N[C@@H](CCSC)C(=O)N[C@@H](CCCNC(=N)N)C(=O)N[C@@H](Cc1ccccc1)C(=O)NCC(=O)N[C@@H](CCCCN)C(=O)N2 [compound 150] (H-GSGVPINVKCRGSRDCLDPCKKAGMRFGKCINSKCHCTP-OH; disulfide 10-30, 16-35, 20-37; N-terminus and C-terminus assumed)
High: Resistance to 75° C. [1] | Resistance to 100° C. [1] | Resistance to Reduction [2]
